Some of the results follow.
Experiments:
Assay in all cases: log2 fold change, soluble protein after heating vs DMSO (PISA); higher = thermal stabilisation; K562 cells, 10 uM, 30 min; active = over 0.2 and 3.5 SD of the protein, either way, in both replicates (recomputed)
[1] = compound: CS(=O)(=O)c1ccc(-c2cnc(N)c(C(=O)Nc3ccccc3)n2)cc1
How it was run: (§1)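 Thermal stability values are relative to control samples and come from duplicates. They are expressed as log2 fold changes. For measurement, K562 cells (2×10^6 cells/mL) received 10 μM compound for 30 min, and aliquots were heated for 3 min over 48°C-58°C, pooled, and extracted at 4°C in PBS with 0.5% NP-40. Soluble protein, the supernatant after 21,000xg for 90 min, was quantified by TMTpro 16plex LC-MS/MS with equalised channel sums.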

The chains behind the UniProt entries cited, without tags or fusion partners. Where a name states a change or a piece, a line headed by the entry shows the natural chain unless it says otherwise.
UniProt Q9H307: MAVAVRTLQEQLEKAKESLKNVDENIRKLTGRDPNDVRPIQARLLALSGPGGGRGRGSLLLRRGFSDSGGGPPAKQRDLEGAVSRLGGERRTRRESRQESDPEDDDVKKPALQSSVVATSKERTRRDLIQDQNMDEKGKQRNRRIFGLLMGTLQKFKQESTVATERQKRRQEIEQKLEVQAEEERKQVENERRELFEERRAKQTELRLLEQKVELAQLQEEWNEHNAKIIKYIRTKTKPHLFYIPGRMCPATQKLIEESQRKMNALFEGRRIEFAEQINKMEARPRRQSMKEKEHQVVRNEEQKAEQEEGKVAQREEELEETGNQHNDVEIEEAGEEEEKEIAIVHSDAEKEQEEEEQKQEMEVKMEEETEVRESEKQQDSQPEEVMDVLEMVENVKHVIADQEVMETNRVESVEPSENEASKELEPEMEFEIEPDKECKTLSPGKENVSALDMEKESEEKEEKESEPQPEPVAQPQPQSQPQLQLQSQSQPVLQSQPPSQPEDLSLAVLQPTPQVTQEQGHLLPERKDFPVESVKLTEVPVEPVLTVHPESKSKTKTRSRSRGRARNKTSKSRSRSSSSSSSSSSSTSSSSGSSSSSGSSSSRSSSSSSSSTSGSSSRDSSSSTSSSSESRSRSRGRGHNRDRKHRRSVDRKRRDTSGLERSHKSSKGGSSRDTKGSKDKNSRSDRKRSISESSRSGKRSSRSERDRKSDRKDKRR
UniProt Q9Y535: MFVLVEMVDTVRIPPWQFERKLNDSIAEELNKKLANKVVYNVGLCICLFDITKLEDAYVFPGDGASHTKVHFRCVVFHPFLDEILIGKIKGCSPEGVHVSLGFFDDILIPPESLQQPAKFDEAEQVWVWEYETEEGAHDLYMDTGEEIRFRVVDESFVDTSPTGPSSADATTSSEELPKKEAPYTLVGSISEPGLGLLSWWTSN
UniProt Q9Y2Y1: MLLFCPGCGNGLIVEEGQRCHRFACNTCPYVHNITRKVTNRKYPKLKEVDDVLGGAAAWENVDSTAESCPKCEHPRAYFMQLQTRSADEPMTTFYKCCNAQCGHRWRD
UniProt Q8WUA2: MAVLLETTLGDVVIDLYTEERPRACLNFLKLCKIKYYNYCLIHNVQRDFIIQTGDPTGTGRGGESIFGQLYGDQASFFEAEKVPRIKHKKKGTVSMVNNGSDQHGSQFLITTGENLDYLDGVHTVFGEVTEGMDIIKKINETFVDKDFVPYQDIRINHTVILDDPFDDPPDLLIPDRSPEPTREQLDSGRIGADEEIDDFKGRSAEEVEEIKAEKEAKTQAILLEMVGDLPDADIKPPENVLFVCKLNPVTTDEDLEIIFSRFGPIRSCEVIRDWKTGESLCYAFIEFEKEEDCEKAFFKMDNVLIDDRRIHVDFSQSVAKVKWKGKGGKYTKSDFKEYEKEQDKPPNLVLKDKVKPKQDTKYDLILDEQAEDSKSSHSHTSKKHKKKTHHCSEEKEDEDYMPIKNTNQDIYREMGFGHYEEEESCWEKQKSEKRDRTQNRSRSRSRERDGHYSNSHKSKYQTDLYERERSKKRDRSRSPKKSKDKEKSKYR
UniProt Q9HAB8: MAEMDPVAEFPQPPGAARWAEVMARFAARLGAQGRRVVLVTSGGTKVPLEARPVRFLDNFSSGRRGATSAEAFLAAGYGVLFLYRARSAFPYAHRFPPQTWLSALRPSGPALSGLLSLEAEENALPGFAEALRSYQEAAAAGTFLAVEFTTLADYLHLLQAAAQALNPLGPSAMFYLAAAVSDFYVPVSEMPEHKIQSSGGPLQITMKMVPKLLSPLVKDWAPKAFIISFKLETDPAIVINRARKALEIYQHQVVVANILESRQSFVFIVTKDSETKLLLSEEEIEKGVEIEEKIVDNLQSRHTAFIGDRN
UniProt Q9NR33: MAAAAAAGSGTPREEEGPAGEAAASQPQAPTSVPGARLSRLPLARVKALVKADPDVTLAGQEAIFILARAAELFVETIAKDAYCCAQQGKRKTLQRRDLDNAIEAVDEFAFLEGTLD
UniProt Q04941: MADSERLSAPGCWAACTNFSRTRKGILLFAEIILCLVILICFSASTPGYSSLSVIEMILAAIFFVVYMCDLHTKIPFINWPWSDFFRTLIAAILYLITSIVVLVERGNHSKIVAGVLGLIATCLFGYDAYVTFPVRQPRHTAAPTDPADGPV
UniProt O60664: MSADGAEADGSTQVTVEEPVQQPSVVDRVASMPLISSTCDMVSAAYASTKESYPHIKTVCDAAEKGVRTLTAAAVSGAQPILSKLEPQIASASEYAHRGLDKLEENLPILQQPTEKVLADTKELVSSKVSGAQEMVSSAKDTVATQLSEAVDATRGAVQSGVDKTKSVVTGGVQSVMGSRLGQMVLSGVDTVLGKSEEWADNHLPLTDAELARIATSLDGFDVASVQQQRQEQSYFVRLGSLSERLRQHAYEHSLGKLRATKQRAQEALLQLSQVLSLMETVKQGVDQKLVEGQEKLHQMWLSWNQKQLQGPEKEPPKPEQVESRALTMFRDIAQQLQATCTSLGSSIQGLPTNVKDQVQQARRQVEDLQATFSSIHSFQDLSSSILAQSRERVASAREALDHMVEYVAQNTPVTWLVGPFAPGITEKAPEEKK
UniProt Q9HBL7: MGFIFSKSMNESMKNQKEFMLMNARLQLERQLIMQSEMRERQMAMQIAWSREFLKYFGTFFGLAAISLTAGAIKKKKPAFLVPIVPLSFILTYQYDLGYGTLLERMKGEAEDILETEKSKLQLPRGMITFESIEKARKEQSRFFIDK
UniProt Q8NBL1: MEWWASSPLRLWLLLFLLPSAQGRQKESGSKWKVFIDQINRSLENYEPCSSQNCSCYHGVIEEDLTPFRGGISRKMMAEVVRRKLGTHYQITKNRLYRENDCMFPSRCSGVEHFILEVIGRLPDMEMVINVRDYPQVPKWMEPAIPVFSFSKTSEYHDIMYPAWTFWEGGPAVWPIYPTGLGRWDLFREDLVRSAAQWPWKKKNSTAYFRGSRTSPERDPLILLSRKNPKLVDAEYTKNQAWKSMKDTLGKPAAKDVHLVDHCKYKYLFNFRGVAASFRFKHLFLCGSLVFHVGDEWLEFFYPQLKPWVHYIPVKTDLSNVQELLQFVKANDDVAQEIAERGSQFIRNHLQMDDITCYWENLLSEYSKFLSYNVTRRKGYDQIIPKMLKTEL
UniProt P0CAP2, whole entry, looked up: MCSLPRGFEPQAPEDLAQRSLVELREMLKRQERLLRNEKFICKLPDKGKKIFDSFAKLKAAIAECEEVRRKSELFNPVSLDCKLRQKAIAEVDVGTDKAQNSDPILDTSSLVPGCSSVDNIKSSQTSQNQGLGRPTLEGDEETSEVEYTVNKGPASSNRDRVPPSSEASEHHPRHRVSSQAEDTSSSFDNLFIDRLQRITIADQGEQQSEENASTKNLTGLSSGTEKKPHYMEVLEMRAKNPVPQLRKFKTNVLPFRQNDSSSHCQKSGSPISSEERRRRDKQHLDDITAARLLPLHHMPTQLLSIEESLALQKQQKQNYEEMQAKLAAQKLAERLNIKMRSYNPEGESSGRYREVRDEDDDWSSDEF
UniProt Q14181: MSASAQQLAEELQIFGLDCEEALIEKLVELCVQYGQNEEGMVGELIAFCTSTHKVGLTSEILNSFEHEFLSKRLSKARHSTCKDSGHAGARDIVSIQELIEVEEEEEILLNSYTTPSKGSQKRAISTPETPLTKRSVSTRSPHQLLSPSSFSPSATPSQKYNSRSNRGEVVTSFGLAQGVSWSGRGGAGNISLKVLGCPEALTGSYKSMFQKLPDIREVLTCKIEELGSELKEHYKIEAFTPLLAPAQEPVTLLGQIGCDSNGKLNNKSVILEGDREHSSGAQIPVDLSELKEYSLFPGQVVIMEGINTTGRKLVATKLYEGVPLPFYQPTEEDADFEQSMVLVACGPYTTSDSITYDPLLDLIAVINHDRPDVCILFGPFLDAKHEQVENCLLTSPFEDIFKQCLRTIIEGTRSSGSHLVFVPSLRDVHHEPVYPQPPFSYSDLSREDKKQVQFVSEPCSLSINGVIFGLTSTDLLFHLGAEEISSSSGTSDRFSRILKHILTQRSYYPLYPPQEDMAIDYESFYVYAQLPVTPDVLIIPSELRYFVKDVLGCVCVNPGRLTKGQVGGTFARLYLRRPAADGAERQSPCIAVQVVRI
UniProt Q8NAT1: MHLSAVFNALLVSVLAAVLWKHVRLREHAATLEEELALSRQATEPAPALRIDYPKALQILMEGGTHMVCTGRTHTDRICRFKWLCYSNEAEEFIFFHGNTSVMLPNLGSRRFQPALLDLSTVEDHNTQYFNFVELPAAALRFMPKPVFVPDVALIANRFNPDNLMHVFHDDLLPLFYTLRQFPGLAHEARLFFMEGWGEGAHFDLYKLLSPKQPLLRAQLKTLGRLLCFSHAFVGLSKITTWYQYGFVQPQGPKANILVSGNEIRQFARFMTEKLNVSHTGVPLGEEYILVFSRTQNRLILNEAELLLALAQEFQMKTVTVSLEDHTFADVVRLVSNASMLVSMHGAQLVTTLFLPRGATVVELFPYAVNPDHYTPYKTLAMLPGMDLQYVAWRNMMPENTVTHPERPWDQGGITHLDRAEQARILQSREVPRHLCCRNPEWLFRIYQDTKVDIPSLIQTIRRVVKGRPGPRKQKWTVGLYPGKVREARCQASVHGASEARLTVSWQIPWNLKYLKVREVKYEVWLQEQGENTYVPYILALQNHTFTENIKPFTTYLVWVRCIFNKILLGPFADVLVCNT
UniProt P53350, whole entry, looked up: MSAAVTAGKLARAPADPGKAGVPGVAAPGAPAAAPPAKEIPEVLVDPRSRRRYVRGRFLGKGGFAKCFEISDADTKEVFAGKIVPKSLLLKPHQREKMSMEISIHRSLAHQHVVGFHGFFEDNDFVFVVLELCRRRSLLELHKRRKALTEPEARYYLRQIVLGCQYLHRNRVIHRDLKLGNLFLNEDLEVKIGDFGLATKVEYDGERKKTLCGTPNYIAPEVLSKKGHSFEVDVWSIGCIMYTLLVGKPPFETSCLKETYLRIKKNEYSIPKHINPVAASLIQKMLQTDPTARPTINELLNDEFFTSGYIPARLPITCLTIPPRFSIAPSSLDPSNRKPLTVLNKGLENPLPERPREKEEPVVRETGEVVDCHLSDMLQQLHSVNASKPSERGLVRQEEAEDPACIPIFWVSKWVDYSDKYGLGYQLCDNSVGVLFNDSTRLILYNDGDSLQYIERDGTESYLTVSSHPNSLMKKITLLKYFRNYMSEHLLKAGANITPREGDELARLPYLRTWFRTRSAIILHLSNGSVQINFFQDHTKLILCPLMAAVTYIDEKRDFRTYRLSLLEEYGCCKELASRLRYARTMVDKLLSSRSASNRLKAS
UniProt P00747, whole entry, looked up: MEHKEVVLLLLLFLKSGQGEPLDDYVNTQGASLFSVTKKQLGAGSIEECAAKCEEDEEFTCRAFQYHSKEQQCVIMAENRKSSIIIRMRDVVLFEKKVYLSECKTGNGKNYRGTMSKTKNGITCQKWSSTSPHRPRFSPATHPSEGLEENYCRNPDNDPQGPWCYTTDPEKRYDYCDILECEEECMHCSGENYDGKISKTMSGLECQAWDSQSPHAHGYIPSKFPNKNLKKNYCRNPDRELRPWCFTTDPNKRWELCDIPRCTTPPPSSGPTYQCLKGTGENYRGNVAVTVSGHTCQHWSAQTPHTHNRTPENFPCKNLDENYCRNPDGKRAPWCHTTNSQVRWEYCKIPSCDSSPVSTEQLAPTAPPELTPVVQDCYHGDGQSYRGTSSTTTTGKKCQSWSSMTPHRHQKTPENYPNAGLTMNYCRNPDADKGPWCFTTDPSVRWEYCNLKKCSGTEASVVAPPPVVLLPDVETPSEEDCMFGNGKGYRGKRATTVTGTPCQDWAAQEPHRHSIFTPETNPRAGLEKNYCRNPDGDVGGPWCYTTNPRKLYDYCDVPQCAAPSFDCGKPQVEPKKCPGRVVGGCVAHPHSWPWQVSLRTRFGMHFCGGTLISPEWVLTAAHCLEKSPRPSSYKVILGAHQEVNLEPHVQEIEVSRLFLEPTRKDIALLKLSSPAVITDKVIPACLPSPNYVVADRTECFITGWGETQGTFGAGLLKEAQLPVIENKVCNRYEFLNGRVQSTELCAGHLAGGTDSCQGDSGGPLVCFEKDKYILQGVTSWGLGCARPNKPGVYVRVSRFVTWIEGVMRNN

crizotinib = compound: C[C@@H](Oc1cc(-c2cnn(C3CCNCC3)c2)cnc1N)c1c(Cl)ccc(F)c1Cl [crizotinib]
How it was run: as §1

[2] = compound: C[C@@H]1COCCN1C2=NC(=NC(=C2)C3(CC3)S(=O)(=O)C)C4=C5C=CNC5=CC=C4
How it was run: as §1

[3] = compound: C[C@H](C1=CC=C(C=C1)C(=O)NC2=C3C=CNC3=NC=C2)N
How it was run: as §1

gandotinib = compound: Cc1cc(Nc2cc(CN3CCOCC3)c3nc(C)c(Cc4ccc(Cl)cc4F)n3n2)n[nH]1 [gandotinib]
How it was run: as §1

[4] = compound: Cc1cc(SCc2sc(-c3ccc(C(F)(F)F)cc3)nc2C)ccc1OCC(=O)O
How it was run: as §1

doramapimod = compound: Cc1ccc(-n2nc(C(C)(C)C)cc2NC(=O)Nc2ccc(OCCN3CCOCC3)c3ccccc23)cc1 [doramapimod]
How it was run: as §1

ispinesib = compound: Cc1ccc(C(=O)N(CCCN)[C@@H](c2nc3cc(Cl)ccc3c(=O)n2Cc2ccccc2)C(C)C)cc1 [ispinesib]
How it was run: as §1

duvelisib = compound: C[C@H](Nc1ncnc2nc[nH]c12)c1cc2cccc(Cl)c2c(=O)n1-c1ccccc1 [duvelisib]
How it was run: as §1

tozasertib = compound: Cc1cc(Nc2cc(N3CCN(C)CC3)nc(Sc3ccc(NC(=O)C4CC4)cc3)n2)n[nH]1 [tozasertib]
How it was run: as §1

Row | Target | log2 fold change [1] | log2 fold change (crizotinib) | log2 fold change [2] | log2 fold change [3] | log2 fold change (gandotinib) | log2 fold change [4] | log2 fold change (doramapimod) | log2 fold change (ispinesib) | log2 fold change (duvelisib) | log2 fold change (tozasertib)
1 | POLR2B (UniProt P30876) | inactive: 0.041 | inactive: 0.032 | inactive: 0.023 | inactive: 0.18 | active: 0.26 | inactive: 0.03 | inactive: -0.014 | inactive: -0.048 |  | 
2 | PNN (UniProt Q9H307) | inactive: -0.043 | inactive: -0.154 | inactive: 0.022 | inactive: -0.05 | inactive: 0.012 | inactive: -0.003 | inactive: -0.032 | inactive: -0.08 |  | 
3 | POLR2A (UniProt P24928) | inactive: 0.027 | inactive: 0.231 | inactive: 0.049 | inactive: 0.21 | active: 0.321 | inactive: 0.023 | inactive: -0.009 | inactive: 0.006 |  | 
4 | POLR3H (UniProt Q9Y535) | inactive: -0.011 | inactive: -0.08 | inactive: -0.06 | inactive: -0.044 | inactive: -0.178 | inactive: 0.004 | inactive: -0.003 | inactive: 0.064 | inactive: -0.022 | 
5 | POLR3K (UniProt Q9Y2Y1) | inactive: -0.026 | inactive: 0.015 | inactive: 0.035 | inactive: -0.027 | inactive: 0.066 | inactive: -0.059 | inactive: 0.038 | inactive: -0.075 |  | 
6 | PPIL4 (UniProt Q8WUA2) | inactive: -0.022 | inactive: -0.013 | inactive: 0.027 | inactive: -0.01 | inactive: 0 | inactive: 0.021 | inactive: 0.019 | inactive: -0.017 |  | 
7 | PPCS (UniProt Q9HAB8) | inactive: 0.049 | inactive: 0.047 | inactive: 0.056 | inactive: -0.006 | inactive: -0.031 | inactive: 0.042 | inactive: -0.004 | inactive: 0.079 | inactive: 0.047 | inactive: -0.052
8 | POLE4 (UniProt Q9NR33) | inactive: 0.001 | inactive: 0.149 | inactive: 0.203 | inactive: -0.202 | inactive: 0.096 |  | inactive: -0.029 |  |  | inactive: 0.122
9 | PLP2 (UniProt Q04941) | inactive: -0.024 | inactive: 0.271 | inactive: -0.201 | inactive: -0.026 | inactive: 0.045 | inactive: -0.069 | inactive: -0.097 |  | inactive: -0.016 | 
10 | PLIN3 isoform 2 (UniProt O60664) | inactive: 0.117 |  | inactive: -0.162 |  |  |  |  |  |  | 
11 | PLGRKT (UniProt Q9HBL7) | inactive: -0.012 |  | inactive: 0.309 | inactive: -0.092 | inactive: -0.049 | inactive: -0.057 |  |  | inactive: 0.185 | inactive: 0.189
12 | PNPLA4 (UniProt P41247) | inactive: 0.319 | active: -0.651 |  | inactive: 0.559 |  | inactive: 0.117 | active: 0.895 | inactive: -0.093 |  | 
13 | POLR2I (UniProt P36954) | inactive: 0.003 | inactive: 0.334 | inactive: 0.052 | inactive: 0.001 | inactive: 0.336 | inactive: -0.032 | inactive: -0.047 | inactive: 0.127 |  | 
14 | POLA1 (UniProt P09884) | inactive: 0.01 | inactive: -0.041 | inactive: 0.065 | inactive: -0.048 | inactive: -0.069 | inactive: 0.09 | inactive: -0.029 | inactive: -0.036 |  | 
15 | PLXNA3 (UniProt P51805) | inactive: 0.023 | inactive: -0.248 | inactive: 0.027 |  | inactive: 0.047 | inactive: -0.148 | inactive: -0.011 |  | inactive: 0.334 | inactive: -0.11
16 | POGLUT1 (UniProt Q8NBL1) | inactive: 0.064 | inactive: 0.059 | inactive: 0 | inactive: 0.241 | inactive: -0.011 | inactive: 0.037 | inactive: 0.029 | inactive: 0.087 |  | 

Row | Target | log2 fold change [1] | log2 fold change (crizotinib) | log2 fold change [2] | log2 fold change [3] | log2 fold change (gandotinib) | log2 fold change [4] | log2 fold change (doramapimod) | log2 fold change (ispinesib) | log2 fold change (duvelisib) | log2 fold change (tozasertib)
17 | POLR2M (UniProt P0CAP2) | inactive: 0.028 | inactive: 0.074 | inactive: 0.097 | inactive: 0.044 | inactive: 0.141 | inactive: 0.012 | inactive: 0.013 | inactive: -0.055 |  | 
18 | POLR2G (UniProt P62487) | inactive: 0.006 | inactive: 0.257 | inactive: 0.111 | inactive: 0.125 | inactive: 0.191 | inactive: -0.026 | inactive: -0.016 | inactive: 0.035 |  | 
19 | PLXNB1 (UniProt O43157) | inactive: 0.272 |  | inactive: 0.012 |  |  |  |  |  |  | 
20 | PLS3 (UniProt H7C4N2) | inactive: 0.193 | inactive: 0.038 | inactive: -0.196 |  |  |  | inactive: 0.35 |  |  | 
21 | POM121 (UniProt Q96HA1) | inactive: 0.024 | inactive: -0.139 | inactive: -0.016 | inactive: 0.084 | inactive: -0.043 | inactive: 0.008 | inactive: 0.134 | active: -0.307 |  | 
22 | POLA2 (UniProt Q14181) | inactive: 0.116 | inactive: -0.026 | inactive: 0.143 | inactive: -0.036 | active: -0.287 | inactive: 0.047 | inactive: -0.013 | inactive: -0.028 |  | 
23 | POLR2C (UniProt P19387) | inactive: 0.019 | inactive: 0.127 | inactive: -0.062 | inactive: 0.163 |  | inactive: 0.113 | inactive: 0.012 | inactive: 0.034 |  | 
24 | POLR1A (UniProt O95602) | inactive: 0.076 | inactive: -0.017 | inactive: -0.116 | inactive: 0.125 | inactive: -0.03 | inactive: 0.08 | inactive: 0.141 | inactive: -0.151 |  | 
25 | POLR2D (UniProt O15514) | inactive: 0.006 | inactive: 0.192 | inactive: -0.08 | inactive: 0.038 | inactive: 0.158 | inactive: -0.068 | inactive: -0.024 | inactive: 0.017 |  | 
26 | PPIL3 isoform 2 (UniProt Q9H2H8) | inactive: -0.026 | inactive: 0.061 | inactive: 0.009 |  | inactive: -0.026 | inactive: 0.122 | inactive: 0.032 | inactive: -0.176 | inactive: -0.051 | inactive: 0.105
27 | POMGNT2 (UniProt Q8NAT1) | inactive: 0.012 | inactive: -0.036 |  | inactive: -0.019 | inactive: 0.087 | inactive: -0.018 | inactive: 0.027 |  | inactive: 0.021 | 
28 | PNKP (UniProt Q96T60) | inactive: 0.135 | inactive: -0.016 |  | inactive: 0.106 | inactive: 0.158 | inactive: 0.133 | inactive: 0.017 | inactive: 0.007 | inactive: 0.021 | inactive: -0.328
29 | PML (UniProt P29590) | inactive: -0.011 | inactive: 0.017 | inactive: 0.025 | inactive: -0.027 | inactive: -0.019 | inactive: -0.051 | inactive: -0.054 | inactive: -0.027 |  | 
30 | PMAIP1 (UniProt Q13794) | inactive: -0.005 |  | inactive: 0.02 | inactive: -0.065 | inactive: -0.048 | inactive: -0.041 |  | inactive: 0.016 | inactive: 0.233 | inactive: -0.128
31 | PLK1 (UniProt P53350) | inactive: -0.113 | inactive: -0.105 | inactive: -0.194 | inactive: 0.031 | inactive: 0.095 | inactive: -0.1 | inactive: 0.032 | inactive: 0.01 |  | 
32 | PLG (UniProt P00747) | inactive: -0.025 | inactive: 0.038 |  | inactive: 0.072 | inactive: -0.035 | inactive: -0.257 | inactive: 0.089 |  | inactive: -0.259 | inactive: -0.148

As a working copy, some entries already given:
Row | Target | log2 fold change [1] | log2 fold change (crizotinib) | log2 fold change [2] | log2 fold change [3] | log2 fold change (gandotinib) | log2 fold change [4] | log2 fold change (doramapimod) | log2 fold change (ispinesib) | log2 fold change (duvelisib) | log2 fold change (tozasertib)
31 | PLK1 (UniProt P53350) | inactive: -0.113 | inactive: -0.105 | inactive: -0.194 | inactive: 0.031 | inactive: 0.095 | inactive: -0.1 | inactive: 0.032 | inactive: 0.01 |  | 
32 | PLG (UniProt P00747) | inactive: -0.025 | inactive: 0.038 |  | inactive: 0.072 | inactive: -0.035 | inactive: -0.257 | inactive: 0.089 |  | inactive: -0.259 | inactive: -0.148

Source: the supplement of paper PMC10849652
